PubChem BioAssay AID1259424 – University of Nebraska Medical Center – 2018

Assay: 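Seek colon cancer survival genes behaving like KSR1, using a six-gene signature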 (primary screen)
Cells: human HCT116 colon cancer cells
Reagents: siRNA pool against human genes, 50 nM
Read-out: 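Six signature mRNAs by branched-DNA multiplex assay, scaled to two housekeeping genes and non-targeting median, log2; matched to mean KSR1 knockdown profile by Pearson correlation and euclidean distance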
Scale: mean correlation with KSR1 profile: higher = expression change more like KSR1 knockdown; mean distance from KSR1 profile: higher = expression change less like KSR1 knockdown
Shown is an unselected part of about 14,000 deposited reagents. 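Higher correlation or smaller distance means closer resemblance to KSR1 loss; control wells, including KSR1 knockdowns, recur on many plates.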 Some reagents were tested in more than one well and are listed for each. Further read-outs or replicates are left out here. Not stated in the record: the time to read-out.

USP30 (GeneID 84749) → mean correlation with KSR1 profile: 0.543; mean distance from KSR1 profile: 0.758
DNAJC14 (GeneID 85406) → mean correlation with KSR1 profile: 0.0319; mean distance from KSR1 profile: 2.1
GAA (GeneID 2548) → mean correlation with KSR1 profile: -0.705; mean distance from KSR1 profile: 2.52
SEPTIN5 (GeneID 5413) → mean correlation with KSR1 profile: 0.118; mean distance from KSR1 profile: 3.5
SUZ12 (GeneID 23512) → mean correlation with KSR1 profile: 0.0366; mean distance from KSR1 profile: 1.7
ATRX (GeneID 546) → mean correlation with KSR1 profile: 0.217; mean distance from KSR1 profile: 1.7
IRAK3 (GeneID 11213) → mean correlation with KSR1 profile: 0.409; mean distance from KSR1 profile: 2.09
STK24 (GeneID 8428) → mean correlation with KSR1 profile: 0.501; mean distance from KSR1 profile: 1.44
ACVR2B (GeneID 93) → mean correlation with KSR1 profile: 0.559; mean distance from KSR1 profile: 1.76
OR3A2 (GeneID 4995) → mean correlation with KSR1 profile: 0.803; mean distance from KSR1 profile: 1.68
ST8SIA5 (GeneID 29906) → mean correlation with KSR1 profile: 0.693; mean distance from KSR1 profile: 0.671
CREM (GeneID 1390) → mean correlation with KSR1 profile: -0.55; mean distance from KSR1 profile: 2.52
C2 (GeneID 717) → mean correlation with KSR1 profile: 0.0122; mean distance from KSR1 profile: 2.97
CHUK (GeneID 1147) → mean correlation with KSR1 profile: -0.0688; mean distance from KSR1 profile: 3.48
ZNF750 (GeneID 79755) → mean correlation with KSR1 profile: 0.665; mean distance from KSR1 profile: 1.52
STX1A (GeneID 6804) → mean correlation with KSR1 profile: -0.531; mean distance from KSR1 profile: 2.27
TAS1R1 (GeneID 80835) → mean correlation with KSR1 profile: 0.479; mean distance from KSR1 profile: 3.6
MRGPRX4 (GeneID 117196) → mean correlation with KSR1 profile: 0.721; mean distance from KSR1 profile: 1.53
TNRC6B (GeneID 23112) → mean correlation with KSR1 profile: -0.076; mean distance from KSR1 profile: 2.72
CELF3 (GeneID 11189) → mean correlation with KSR1 profile: -0.349; mean distance from KSR1 profile: 4.43
RPL36AL (GeneID 6166) → mean correlation with KSR1 profile: -0.334; mean distance from KSR1 profile: 3.89
SUGP1 (GeneID 57794) → mean correlation with KSR1 profile: 0.147; mean distance from KSR1 profile: 1.71
U2AF1 (GeneID 7307) → mean correlation with KSR1 profile: -0.448; mean distance from KSR1 profile: 3.93
FAM20B (GeneID 9917) → mean correlation with KSR1 profile: 0.0137; mean distance from KSR1 profile: 2.43
PTGER2 (GeneID 5732) → mean correlation with KSR1 profile: 0.564; mean distance from KSR1 profile: 2.64
HAPLN2 (GeneID 60484) → mean correlation with KSR1 profile: -0.256; mean distance from KSR1 profile: 1.63
AKAP8L (GeneID 26993) → mean correlation with KSR1 profile: -0.246; mean distance from KSR1 profile: 1.33
AKAP8L (GeneID 26993) → mean correlation with KSR1 profile: 0.428; mean distance from KSR1 profile: 1.57

No new results follow: 2 of the entries above.
CHUK (GeneID 1147) → mean correlation with KSR1 profile: -0.0688; mean distance from KSR1 profile: 3.48
ZNF750 (GeneID 79755) → mean correlation with KSR1 profile: 0.665; mean distance from KSR1 profile: 1.52
